Source: paper PMC7733952
No constants are given. Whether binding was seen depends on the method and setting. Binding seen in cells or lysates may run through a third protein. Here binding means that the protein was enriched with, or labelled near, the bait; the list need not be complete.

Amino acid sequences for entries named in this document (tags omitted).
UniProt P35710: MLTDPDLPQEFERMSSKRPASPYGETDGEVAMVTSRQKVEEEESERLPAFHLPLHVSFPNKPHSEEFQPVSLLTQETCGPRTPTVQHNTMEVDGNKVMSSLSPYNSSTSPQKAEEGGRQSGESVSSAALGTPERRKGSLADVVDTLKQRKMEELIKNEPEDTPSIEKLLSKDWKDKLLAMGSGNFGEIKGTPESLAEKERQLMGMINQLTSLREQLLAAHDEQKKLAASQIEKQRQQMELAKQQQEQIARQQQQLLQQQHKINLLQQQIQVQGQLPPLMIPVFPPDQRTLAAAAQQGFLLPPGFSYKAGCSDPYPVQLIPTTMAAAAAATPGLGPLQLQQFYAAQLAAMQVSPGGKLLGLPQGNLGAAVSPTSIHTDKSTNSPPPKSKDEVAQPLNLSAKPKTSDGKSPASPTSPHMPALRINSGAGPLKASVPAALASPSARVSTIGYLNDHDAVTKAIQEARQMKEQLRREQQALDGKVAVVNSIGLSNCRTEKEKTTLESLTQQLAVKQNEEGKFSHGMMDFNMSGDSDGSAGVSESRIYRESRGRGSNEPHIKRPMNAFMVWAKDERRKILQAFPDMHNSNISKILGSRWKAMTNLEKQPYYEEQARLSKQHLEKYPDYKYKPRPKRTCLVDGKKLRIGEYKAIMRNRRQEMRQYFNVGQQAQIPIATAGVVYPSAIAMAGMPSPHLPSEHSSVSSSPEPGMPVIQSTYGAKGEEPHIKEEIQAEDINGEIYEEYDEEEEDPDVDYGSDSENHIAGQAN

Molecular target: T1, endogenous STING of RAW264.7 cells (mouse (endogenous in RAW264.7)) (UniProt Q3TBT3)
T1 sequence: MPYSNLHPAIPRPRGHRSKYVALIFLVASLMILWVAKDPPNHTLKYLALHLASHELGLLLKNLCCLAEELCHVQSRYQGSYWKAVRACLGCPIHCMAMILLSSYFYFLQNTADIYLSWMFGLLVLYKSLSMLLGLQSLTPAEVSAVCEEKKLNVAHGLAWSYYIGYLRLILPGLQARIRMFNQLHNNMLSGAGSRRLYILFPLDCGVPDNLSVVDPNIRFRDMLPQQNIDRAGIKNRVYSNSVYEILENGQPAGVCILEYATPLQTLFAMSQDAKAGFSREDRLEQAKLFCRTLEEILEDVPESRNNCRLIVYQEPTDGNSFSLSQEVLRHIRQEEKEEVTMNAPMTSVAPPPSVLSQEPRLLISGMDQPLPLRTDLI
Test: affinity purification with mass spectrometry

## SOX5 (from UniProt P35710 1-763)
  binding: binds
